From the supplement of paper PMC12823440, “Inhibitors supercharge kinase turnover through native proteolytic circuits” (Nature, 2025)
Structures can show the parent of a compound that is named as a salt. The list shows a part of the results. The calls rarely recur for the same compound in another form.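 In K562 cells expressing nanoluciferase-fused kinases, luminescence was recorded at 4 h intervals between 2 and 18 h, normalized as percent of control with DMSO at 100% and a positive control at 0%. A significant (2 sigma) signal drop marks a time point as decreased. The authors' rule for a hit is not shown and takes in more than the number of time points.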

Chains of the proteins cited; added tags and fusions are not shown. Lines headed by an entry give the natural chain unless they say otherwise; changes in a name come on top.
UniProt O75460: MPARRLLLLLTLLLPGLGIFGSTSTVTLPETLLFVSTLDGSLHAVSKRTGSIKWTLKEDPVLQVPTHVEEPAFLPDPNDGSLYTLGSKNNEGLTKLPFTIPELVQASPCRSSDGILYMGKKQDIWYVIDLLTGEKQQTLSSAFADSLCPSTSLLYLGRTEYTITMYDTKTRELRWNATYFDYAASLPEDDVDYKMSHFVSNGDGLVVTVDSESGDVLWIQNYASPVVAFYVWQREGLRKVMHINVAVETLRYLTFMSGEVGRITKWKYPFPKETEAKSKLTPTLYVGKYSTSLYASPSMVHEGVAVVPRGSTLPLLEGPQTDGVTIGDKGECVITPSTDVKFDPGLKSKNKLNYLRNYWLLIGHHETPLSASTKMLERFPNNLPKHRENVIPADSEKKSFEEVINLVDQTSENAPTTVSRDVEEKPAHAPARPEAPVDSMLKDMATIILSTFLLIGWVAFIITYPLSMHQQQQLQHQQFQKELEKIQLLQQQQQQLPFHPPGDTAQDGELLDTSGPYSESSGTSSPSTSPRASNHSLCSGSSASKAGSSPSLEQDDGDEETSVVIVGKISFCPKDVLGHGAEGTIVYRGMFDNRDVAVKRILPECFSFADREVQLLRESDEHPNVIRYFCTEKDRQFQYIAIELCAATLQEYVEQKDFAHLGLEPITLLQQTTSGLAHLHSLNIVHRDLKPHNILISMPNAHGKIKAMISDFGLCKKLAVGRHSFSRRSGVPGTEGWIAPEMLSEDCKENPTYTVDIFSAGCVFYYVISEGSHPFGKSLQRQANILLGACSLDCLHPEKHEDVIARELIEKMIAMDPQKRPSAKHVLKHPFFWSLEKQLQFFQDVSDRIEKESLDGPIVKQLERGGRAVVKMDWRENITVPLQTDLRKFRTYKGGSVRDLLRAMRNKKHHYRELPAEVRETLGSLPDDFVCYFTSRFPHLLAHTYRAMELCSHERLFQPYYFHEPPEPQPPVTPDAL
UniProt P11362, whole entry, looked up: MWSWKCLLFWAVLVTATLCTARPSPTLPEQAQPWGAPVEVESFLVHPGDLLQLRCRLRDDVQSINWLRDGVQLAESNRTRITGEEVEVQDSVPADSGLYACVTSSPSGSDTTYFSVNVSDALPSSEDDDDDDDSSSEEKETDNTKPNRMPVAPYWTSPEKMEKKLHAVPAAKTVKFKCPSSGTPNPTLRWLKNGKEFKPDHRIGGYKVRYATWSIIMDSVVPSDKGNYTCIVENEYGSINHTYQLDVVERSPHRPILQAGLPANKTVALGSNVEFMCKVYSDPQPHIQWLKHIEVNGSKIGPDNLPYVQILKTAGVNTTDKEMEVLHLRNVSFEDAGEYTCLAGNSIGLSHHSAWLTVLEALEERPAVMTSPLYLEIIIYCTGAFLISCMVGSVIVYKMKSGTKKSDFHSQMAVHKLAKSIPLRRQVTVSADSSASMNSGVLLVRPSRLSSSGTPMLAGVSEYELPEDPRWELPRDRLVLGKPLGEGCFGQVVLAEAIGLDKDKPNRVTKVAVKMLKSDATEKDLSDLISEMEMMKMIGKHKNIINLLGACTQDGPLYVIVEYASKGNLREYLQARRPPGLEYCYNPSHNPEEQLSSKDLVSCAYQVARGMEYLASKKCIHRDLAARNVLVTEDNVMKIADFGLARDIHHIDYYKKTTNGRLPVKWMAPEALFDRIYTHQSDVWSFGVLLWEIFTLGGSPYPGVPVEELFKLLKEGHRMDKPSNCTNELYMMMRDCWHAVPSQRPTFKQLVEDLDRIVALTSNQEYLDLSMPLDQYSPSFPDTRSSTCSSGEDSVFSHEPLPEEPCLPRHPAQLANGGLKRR
UniProt P22607, whole entry, looked up: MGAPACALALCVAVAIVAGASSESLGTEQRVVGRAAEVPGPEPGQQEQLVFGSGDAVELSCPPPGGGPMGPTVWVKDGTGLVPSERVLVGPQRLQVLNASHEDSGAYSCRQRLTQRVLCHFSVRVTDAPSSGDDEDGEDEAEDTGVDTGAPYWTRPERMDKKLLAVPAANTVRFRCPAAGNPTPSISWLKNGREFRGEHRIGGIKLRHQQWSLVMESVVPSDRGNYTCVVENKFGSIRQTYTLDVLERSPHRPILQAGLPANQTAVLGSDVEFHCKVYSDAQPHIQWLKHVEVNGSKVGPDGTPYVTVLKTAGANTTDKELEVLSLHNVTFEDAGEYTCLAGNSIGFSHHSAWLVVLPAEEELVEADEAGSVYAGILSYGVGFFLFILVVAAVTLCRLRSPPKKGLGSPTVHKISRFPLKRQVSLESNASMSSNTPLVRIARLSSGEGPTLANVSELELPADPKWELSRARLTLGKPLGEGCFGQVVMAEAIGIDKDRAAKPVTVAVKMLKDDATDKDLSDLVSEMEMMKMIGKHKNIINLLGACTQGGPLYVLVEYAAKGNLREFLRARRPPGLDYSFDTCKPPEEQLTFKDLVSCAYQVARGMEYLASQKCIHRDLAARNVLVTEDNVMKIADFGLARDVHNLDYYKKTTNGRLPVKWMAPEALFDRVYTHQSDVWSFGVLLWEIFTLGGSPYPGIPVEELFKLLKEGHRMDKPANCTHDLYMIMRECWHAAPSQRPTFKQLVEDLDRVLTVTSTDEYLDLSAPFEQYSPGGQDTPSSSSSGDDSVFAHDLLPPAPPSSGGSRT
UniProt P36888, whole entry: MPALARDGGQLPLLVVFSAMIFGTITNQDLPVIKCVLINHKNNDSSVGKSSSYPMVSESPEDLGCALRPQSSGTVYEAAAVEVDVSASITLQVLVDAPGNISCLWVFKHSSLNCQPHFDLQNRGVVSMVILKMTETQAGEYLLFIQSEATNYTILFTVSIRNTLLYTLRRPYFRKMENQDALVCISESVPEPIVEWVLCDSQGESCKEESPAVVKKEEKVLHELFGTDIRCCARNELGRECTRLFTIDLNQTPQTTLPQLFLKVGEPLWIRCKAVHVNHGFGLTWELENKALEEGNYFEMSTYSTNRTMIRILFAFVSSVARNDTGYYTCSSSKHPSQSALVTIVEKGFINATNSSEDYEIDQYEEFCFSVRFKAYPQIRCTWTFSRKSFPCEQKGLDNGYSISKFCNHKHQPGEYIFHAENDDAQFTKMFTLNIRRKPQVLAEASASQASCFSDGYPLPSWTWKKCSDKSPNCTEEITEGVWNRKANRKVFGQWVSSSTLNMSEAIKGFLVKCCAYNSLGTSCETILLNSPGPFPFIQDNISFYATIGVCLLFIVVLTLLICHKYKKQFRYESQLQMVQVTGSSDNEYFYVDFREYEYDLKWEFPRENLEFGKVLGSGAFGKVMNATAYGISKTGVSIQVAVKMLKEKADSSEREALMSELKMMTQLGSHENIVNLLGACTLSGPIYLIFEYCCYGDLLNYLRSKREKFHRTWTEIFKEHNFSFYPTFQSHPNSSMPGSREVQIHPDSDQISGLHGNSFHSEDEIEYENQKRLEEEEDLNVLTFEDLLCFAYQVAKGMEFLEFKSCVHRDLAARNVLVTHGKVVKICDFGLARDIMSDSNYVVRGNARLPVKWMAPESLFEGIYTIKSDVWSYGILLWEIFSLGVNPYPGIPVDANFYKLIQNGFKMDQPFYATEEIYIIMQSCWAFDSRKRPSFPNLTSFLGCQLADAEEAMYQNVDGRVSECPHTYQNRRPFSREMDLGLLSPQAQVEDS
UniProt P06241, whole entry, looked up: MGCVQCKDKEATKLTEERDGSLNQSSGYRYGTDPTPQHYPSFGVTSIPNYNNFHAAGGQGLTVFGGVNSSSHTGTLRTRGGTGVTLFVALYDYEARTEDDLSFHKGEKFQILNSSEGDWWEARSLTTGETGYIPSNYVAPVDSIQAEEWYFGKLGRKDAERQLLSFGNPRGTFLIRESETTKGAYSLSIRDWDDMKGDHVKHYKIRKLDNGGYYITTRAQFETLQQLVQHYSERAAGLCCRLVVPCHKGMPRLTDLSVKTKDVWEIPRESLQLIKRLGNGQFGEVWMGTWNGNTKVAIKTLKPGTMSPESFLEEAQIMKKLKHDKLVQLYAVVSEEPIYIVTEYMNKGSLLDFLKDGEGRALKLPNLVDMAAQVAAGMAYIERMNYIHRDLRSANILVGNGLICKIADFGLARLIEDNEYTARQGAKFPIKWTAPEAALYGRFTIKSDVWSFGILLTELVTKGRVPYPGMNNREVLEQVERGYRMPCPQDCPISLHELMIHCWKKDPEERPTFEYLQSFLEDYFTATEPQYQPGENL
UniProt P49840: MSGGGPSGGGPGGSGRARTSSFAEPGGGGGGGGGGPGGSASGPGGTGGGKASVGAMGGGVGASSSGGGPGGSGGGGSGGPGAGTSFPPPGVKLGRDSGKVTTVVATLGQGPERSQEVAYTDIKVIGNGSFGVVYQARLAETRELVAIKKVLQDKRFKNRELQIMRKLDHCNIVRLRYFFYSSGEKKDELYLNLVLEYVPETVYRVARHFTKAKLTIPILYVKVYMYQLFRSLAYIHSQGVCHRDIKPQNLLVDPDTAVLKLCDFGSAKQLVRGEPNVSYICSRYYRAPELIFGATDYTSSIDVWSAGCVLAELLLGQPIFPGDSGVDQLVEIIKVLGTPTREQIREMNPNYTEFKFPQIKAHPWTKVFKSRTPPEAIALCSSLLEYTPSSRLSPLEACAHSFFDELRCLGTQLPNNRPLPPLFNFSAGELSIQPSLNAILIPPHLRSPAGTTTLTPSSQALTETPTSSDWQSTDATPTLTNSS
UniProt P14616: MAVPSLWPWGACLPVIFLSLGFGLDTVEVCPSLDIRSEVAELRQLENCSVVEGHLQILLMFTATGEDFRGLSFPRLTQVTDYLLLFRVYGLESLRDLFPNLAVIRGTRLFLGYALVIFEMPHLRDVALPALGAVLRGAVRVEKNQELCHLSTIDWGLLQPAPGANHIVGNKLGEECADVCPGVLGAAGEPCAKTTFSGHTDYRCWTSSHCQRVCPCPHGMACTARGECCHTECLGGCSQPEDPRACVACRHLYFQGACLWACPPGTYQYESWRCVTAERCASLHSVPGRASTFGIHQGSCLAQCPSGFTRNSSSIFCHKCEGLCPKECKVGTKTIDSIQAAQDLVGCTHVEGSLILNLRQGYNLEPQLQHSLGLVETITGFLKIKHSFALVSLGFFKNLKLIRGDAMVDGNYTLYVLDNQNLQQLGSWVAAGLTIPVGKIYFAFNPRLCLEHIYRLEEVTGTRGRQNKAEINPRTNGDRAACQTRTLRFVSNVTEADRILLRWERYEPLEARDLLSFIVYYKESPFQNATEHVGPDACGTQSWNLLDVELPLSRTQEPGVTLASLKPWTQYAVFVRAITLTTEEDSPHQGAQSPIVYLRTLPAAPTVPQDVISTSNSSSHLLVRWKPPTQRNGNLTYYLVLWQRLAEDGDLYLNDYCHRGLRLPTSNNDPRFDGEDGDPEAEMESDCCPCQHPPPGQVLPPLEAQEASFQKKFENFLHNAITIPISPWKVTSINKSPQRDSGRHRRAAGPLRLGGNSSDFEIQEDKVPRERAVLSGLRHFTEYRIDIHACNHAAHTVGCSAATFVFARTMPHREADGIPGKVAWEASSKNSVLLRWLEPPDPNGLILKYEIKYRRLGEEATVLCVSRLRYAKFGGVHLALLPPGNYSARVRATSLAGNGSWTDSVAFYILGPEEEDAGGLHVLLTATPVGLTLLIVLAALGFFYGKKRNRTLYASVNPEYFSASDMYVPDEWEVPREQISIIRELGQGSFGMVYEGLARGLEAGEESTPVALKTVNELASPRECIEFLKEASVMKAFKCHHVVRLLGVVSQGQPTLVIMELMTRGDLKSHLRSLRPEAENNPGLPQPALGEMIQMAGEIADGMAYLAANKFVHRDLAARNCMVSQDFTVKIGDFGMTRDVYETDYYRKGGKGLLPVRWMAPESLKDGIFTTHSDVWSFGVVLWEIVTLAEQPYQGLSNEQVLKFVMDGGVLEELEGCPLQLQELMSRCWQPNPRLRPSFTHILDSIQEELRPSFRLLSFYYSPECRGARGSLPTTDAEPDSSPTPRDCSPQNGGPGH

Columns and labels:
Assay in all cases: kinase-Nluc reporter destabilization hit call (1 = scored as downregulated) (binary); higher = compound decreases kinase abundance
Conditions in all cases: K562; 2-18 h
[1] = biological target: ERN1 (UniProt O75460)
[2] = biological target: FGFR1 (UniProt P11362)
[3] = biological target: FGFR2 (UniProt P21802)
[4] = biological target: FGFR3 (UniProt P22607)
[5] = biological target: FGR (UniProt P09769)
[6] = biological target: FLT3 (UniProt P36888)
[7] = biological target: FYN (UniProt P06241)
[8] = biological target: GSK3A (UniProt P49840)
[9] = biological target: HER2 (UniProt P04626)
[10] = biological target: INSRR (UniProt P14616)

Row | SMILES | kinase-Nluc reporter destabilization hit call [1] | kinase-Nluc reporter destabilization hit call [2] | kinase-Nluc reporter destabilization hit call [3] | kinase-Nluc reporter destabilization hit call [4] | kinase-Nluc reporter destabilization hit call [5] | kinase-Nluc reporter destabilization hit call [6] | kinase-Nluc reporter destabilization hit call [7] | kinase-Nluc reporter destabilization hit call [8] | kinase-Nluc reporter destabilization hit call [9] | kinase-Nluc reporter destabilization hit call [10]
1 | CO[C@H]1C[C@@H]2CC[C@@H](C)[C@@](O)(O2)C(=O)C(=O)N2CCCC[C@H]2C(=O)O[C@H]([C@H](C)C[C@@H]2CC[C@@H](OC(=O)C(C)(CO)CO)[C@H](OC)C2)CC(=O)[C@H](C)/C=C(\C)[C@@H](O)[C@@H](OC)C(=O)[C@H](C)C[C@H](C)/C=C/C=C/C=C/1C [Temsirolimus] (2.5 µM) | inactive: 0 | inactive: 0 | inactive: 0 | inactive: 0 | inactive: 0 | inactive: 0 | inactive: 0 | inactive: 0 | inactive: 0 | inactive: 0
2 | CC(C)n1c(=O)n(C)c2cnc3cc(F)c(-c4ccc(OCCCN5CCCCC5)nc4)cc3c21 (10 µM) | inactive: 0 | inactive: 0 | inactive: 0 | inactive: 0 | inactive: 0 | inactive: 0 | inactive: 0 | inactive: 0 | inactive: 0 | inactive: 0
3 | O=Nc1c(-c2c(O)[nH]c3cc(Br)ccc23)[nH]c2ccccc12 [GSK 3 Inhibitor IX] (2.5 µM) | inactive: 0 | inactive: 0 | inactive: 0 | inactive: 0 | inactive: 0 | inactive: 0 | inactive: 0 | inactive: 0 | inactive: 0 | inactive: 0
4 | N#Cc1ccc(-c2cnc3[nH]cc(NC(=O)c4cccnc4)c3c2)cc1 (10 µM) | inactive: 0 | inactive: 0 | inactive: 0 | inactive: 0 | inactive: 0 | inactive: 0 | inactive: 0 | inactive: 0 | inactive: 0 | inactive: 0
5 | CC(Cc1ccc(O)c(O)c1)C(C)Cc1ccc(O)c(O)c1 (stereo not given) [Nordihydroguaiaretic acid] (2.5 µM) | inactive: 0 | inactive: 0 | inactive: 0 | inactive: 0 | inactive: 0 | inactive: 0 | inactive: 0 | inactive: 0 | inactive: 0 | inactive: 0
6 | CCC(=O)Nc1cccc(Oc2nc(Nc3ccc(N4CCN(C)CC4)cc3OC)ncc2Cl)c1 (10 µM) | inactive: 0 | inactive: 0 | inactive: 0 | inactive: 0 | inactive: 0 | inactive: 0 | inactive: 0 | inactive: 0 | inactive: 0 | inactive: 0
7 | Cc1cc(C(=O)NOCCO)c(Nc2ccc(I)cc2F)n(C)c1=O (10 µM) | inactive: 0 | inactive: 0 | inactive: 0 | inactive: 0 | inactive: 0 | inactive: 0 | inactive: 0 | inactive: 0 | inactive: 0 | inactive: 0
8 | CC1(N)CCN(c2cccnc2NC(=O)c2nc(-c3ncccc3C(F)(F)F)cnc2N)CC1 [Darovasertib] (10 µM) | inactive: 0 | inactive: 0 | inactive: 0 | inactive: 0 | inactive: 0 | inactive: 0 | inactive: 0 | inactive: 0 | inactive: 0 | inactive: 0
9 | COC(=O)Nc1ccc(-c2nc(N3CCOCC3)c3cnn(C4CCN(C(=O)OC)CC4)c3n2)cc1 (10 µM) | inactive: 0 | inactive: 0 | inactive: 0 | inactive: 0 | inactive: 0 | inactive: 0 | inactive: 0 | inactive: 0 | inactive: 0 | inactive: 0
10 | CC(C)Oc1ccc(F)c(-c2cnc(N)c(C(=O)Nc3cnccc3N3CCC[C@@H](C(=O)O)C3)n2)c1 (2 µM) | inactive: 0 | inactive: 0 | inactive: 0 | inactive: 0 | inactive: 0 | inactive: 0 | inactive: 0 | inactive: 0 | inactive: 0 | inactive: 0
11 | Cc1ccc(NC(=O)Nc2cc(C(F)(F)F)ccc2F)cc1Nc1ccc2c(c1)NC(=O)/C2=C\c1ccc[nH]1 (2.5 µM) | inactive: 0 | inactive: 0 | inactive: 0 | inactive: 0 | inactive: 0 | inactive: 0 | inactive: 0 | inactive: 0 | inactive: 0 | inactive: 0
12 | CCCCCC(=O)N[C@@H](Cc1ccc(O)cc1)C(=O)OC (10 µM) | inactive: 0 | inactive: 0 | inactive: 0 | inactive: 0 | inactive: 0 | inactive: 0 | inactive: 0 | inactive: 0 | inactive: 0 | inactive: 0
13 | CC(C)CCN1c2nc(Nc3cc(F)c(O)c(F)c3)ncc2N(C)C(=O)C1C (stereo not given) (2.5 µM) | inactive: 0 | inactive: 0 | inactive: 0 | inactive: 0 | inactive: 0 | inactive: 0 | inactive: 0 | inactive: 0 | inactive: 0 | inactive: 0
14 | N#Cc1ccc(-c2cnc3ccc(-c4ccc(C(=O)N5CCOCC5)cc4)cn23)cc1 (10 µM) | inactive: 0 | inactive: 0 | inactive: 0 | inactive: 0 | inactive: 0 | inactive: 0 | inactive: 0 | inactive: 0 | inactive: 0 | inactive: 0
15 | COC(=O)/C=C/c1ccccc1 [Methyl cinnamate] (10 µM) | inactive: 0 | inactive: 0 | inactive: 0 | inactive: 0 | inactive: 0 | inactive: 0 | inactive: 0 | inactive: 0 | inactive: 0 | inactive: 0
16 | N#C/C(=C\c1ccc(O)c(O)c1)C(=O)O [Tyrphostin AG30] (10 µM) | inactive: 0 | inactive: 0 | inactive: 0 | inactive: 0 | inactive: 0 | inactive: 0 | inactive: 0 | inactive: 0 | inactive: 0 | inactive: 0
17 | COCCOc1ccc2c(c1)ncn2-c1ccc2cccc(N3CCC(N)CC3)c2n1 (10 µM) | inactive: 0 | inactive: 0 | inactive: 0 | inactive: 0 | inactive: 0 | inactive: 0 | inactive: 0 | inactive: 0 | inactive: 0 | inactive: 0
18 | NC[C@@](O)(c1ccc(Cl)cc1)c1ccc(-c2cn[nH]c2)cc1 (10 µM) | inactive: 0 | inactive: 0 | inactive: 0 | inactive: 0 | inactive: 0 | inactive: 0 | inactive: 0 | inactive: 0 | inactive: 0 | inactive: 0
19 | COc1cc2cc(Oc3ccc4ccc(=O)oc4c3)c(=O)oc2cc1O [Daphnoretin] (10 µM) | inactive: 0 | inactive: 0 | inactive: 0 | inactive: 0 | inactive: 0 | inactive: 0 | inactive: 0 | inactive: 0 | inactive: 0 | inactive: 0
20 | CC1CN(CC2CCN(Cc3ccccc3)CC2)C(=O)N(c2cccc(C(=N)N)c2)C1 (stereo not given) (10 µM) | inactive: 0 | inactive: 0 | inactive: 0 | inactive: 0 | inactive: 0 | inactive: 0 | inactive: 0 | inactive: 0 | inactive: 0 | inactive: 0
21 | COc1cc(N2CCOCC2)ccc1Nc1ncc(F)c(Nc2ccccc2NS(C)(=O)=O)n1 (10 µM) | inactive: 0 | inactive: 0 | inactive: 0 | inactive: 0 | inactive: 0 | inactive: 0 | inactive: 0 | inactive: 0 | inactive: 0 | inactive: 0
22 | COc1ccc2c3n(c(=NC(=O)c4cccnc4)nc2c1OC)CCN3 (2 µM) | inactive: 0 | inactive: 0 | inactive: 0 | inactive: 0 | inactive: 0 | inactive: 0 | inactive: 0 | inactive: 0 | inactive: 0 | inactive: 0
23 | C=CC(=O)Nc1cccc(Oc2nc(Nc3ccc(N4CCN(C)CC4)c(F)c3)nc3[nH]ccc23)c1 [Avitinib (maleate)] (2.5 µM) | inactive: 0 | inactive: 0 | inactive: 0 | inactive: 0 | inactive: 0 | inactive: 0 | inactive: 0 | inactive: 0 | inactive: 0 | inactive: 0
24 | C=CC(=O)Nc1cc(Nc2nccc(-c3cn(C)c4ccccc34)n2)c(OC)cc1N(C)CCNC [AZ7550 Mesylate] (2.5 µM) | inactive: 0 | inactive: 0 | inactive: 0 | inactive: 0 | inactive: 0 | inactive: 0 | inactive: 0 | inactive: 0 | active: 1 | inactive: 0
25 | C[C@H]1O[C@@H](O[C@H]2CC[C@@]3(C)[C@@H](CC[C@]4(C)[C@@H]3C=C[C@]35OC[C@@]6(CCC(C)(C)C[C@H]63)[C@H](O)C[C@]54C)[C@]2(C)CO)[C@H](O)[C@@H](O[C@@H]2O[C@H](CO)[C@@H](O)[C@H](O)[C@H]2O)[C@H]1O [Saikosaponin D] (2.5 µM) | inactive: 0 | inactive: 0 | inactive: 0 | inactive: 0 | inactive: 0 | inactive: 0 | inactive: 0 | inactive: 0 | inactive: 0 | inactive: 0
26 | Nc1nccc(-c2c(-c3ccc(F)cc3)ncn2C2CCCCC2)n1 (10 µM) | inactive: 0 | inactive: 0 | inactive: 0 | inactive: 0 | inactive: 0 | inactive: 0 | inactive: 0 | inactive: 0 | inactive: 0 | inactive: 0
27 | Cc1cc(-n2c(=O)ccc3c[nH]c4nccc-4c32)ccc1F (10 µM) | inactive: 0 | inactive: 0 | inactive: 0 | inactive: 0 | inactive: 0 | inactive: 0 | inactive: 0 | inactive: 0 | inactive: 0 | inactive: 0
28 | C=C1C(=O)[C@@]23[C@H](O)C[C@@H]4C(C)(C)C(=O)CC[C@@]4(C)[C@@H]2CC[C@@H]1[C@H]3O [Glaucocalyxin A] (2.5 µM) | inactive: 0 | inactive: 0 | inactive: 0 | inactive: 0 | inactive: 0 | inactive: 0 | inactive: 0 | inactive: 0 | inactive: 0 | inactive: 0
29 | C[C@@H]1O[C@@H](Oc2cc(O)c3c(=O)c(O[C@@H]4O[C@@H](C)[C@H](O)[C@@H](O)[C@H]4O)c(-c4ccc(O)cc4)oc3c2)[C@H](O)[C@H](O)[C@H]1O [Kaempferitrin] (10 µM) | inactive: 0 | inactive: 0 | inactive: 0 | inactive: 0 | inactive: 0 | inactive: 0 | inactive: 0 | inactive: 0 | inactive: 0 | inactive: 0

Reprinted at random: 2 entries already listed, in no set order.
Row | SMILES | kinase-Nluc reporter destabilization hit call [1] | kinase-Nluc reporter destabilization hit call [2] | kinase-Nluc reporter destabilization hit call [3] | kinase-Nluc reporter destabilization hit call [4] | kinase-Nluc reporter destabilization hit call [5] | kinase-Nluc reporter destabilization hit call [6] | kinase-Nluc reporter destabilization hit call [7] | kinase-Nluc reporter destabilization hit call [8] | kinase-Nluc reporter destabilization hit call [9] | kinase-Nluc reporter destabilization hit call [10]
13 | CC(C)CCN1c2nc(Nc3cc(F)c(O)c(F)c3)ncc2N(C)C(=O)C1C (stereo not given) (2.5 µM) | inactive: 0 | inactive: 0 | inactive: 0 | inactive: 0 | inactive: 0 | inactive: 0 | inactive: 0 | inactive: 0 | inactive: 0 | inactive: 0
23 | C=CC(=O)Nc1cccc(Oc2nc(Nc3ccc(N4CCN(C)CC4)c(F)c3)nc3[nH]ccc23)c1 [Avitinib (maleate)] (2.5 µM) | inactive: 0 | inactive: 0 | inactive: 0 | inactive: 0 | inactive: 0 | inactive: 0 | inactive: 0 | inactive: 0 | inactive: 0 | inactive: 0
